Laboratory results published in patent publication US8440800B2, “Compositions for reducing cell adhesion to bubbles” (The Ohio State University Research Foundation, priority 2006, dated 2013).
Some of these results come from one statement about several compounds together. At least one compound was matched to its structure with a doubt left.

Key:
red blood cells = settings: cited from earlier work
[1] = Dynamic surface tension in cell culture medium; assay type: physicochemical; settings: maximum non-inhibitory concentration, very little change after the initial drop
Method: The CMC depends on temperature and solution components. Given the significant number of components in typical cell culture media, the CMC of the comparative materials and the protective compositions were determined at 37° C. and in CD CHO-A medium using a SensaDyne bubble tensiometer PC500L (Chem-Dyne Research Corporation, Mesa, Ariz.), which uses the maximum bubble pressure method. The time between initial bubble formation and attainment of maximum bubble pressure, “surface age”, can be varied by changing the gas flow rate. When the static surface tensions were measured, the surface age were adjusted to approximate 1 s, which was enough for small molecule surfactants to migrate to the bubble surface and potentially reach equilibrium. When the dynamic surface tensions were measured, the surface age was varied in the range of about 0.1 to about 3.0 seconds.

Row | SMILES | Concentration until which hemolysis is not induced (red blood cells) | Time to lower the surface tension [1]
1 | CCCCCCCCCCO[C@@H]1O[C@H](CO)[C@@H](O[C@H]2O[C@H](CO)[C@@H](O)[C@H](O)[C@H]2O)[C@H](O)[C@H]1O [DM, n-Decyl-β-D-maltopyranoside] | 0.2˜0.3 CMC | 
2 | CCCCCCCCO[C@@H]1O[C@H](CO)[C@@H](O[C@H]2O[C@H](CO)[C@@H](O)[C@H](O)[C@H]2O)[C@H](O)[C@H]1O [OM, n-Octyl-β-D-maltopyranoside] | 0.2˜0.3 CMC | less than 0.1 s
3 | OC[C@H]1O[C@H](O[C@H]2[C@H](O)[C@@H](O)[C@H](OCCCCC3CCCCC3)O[C@@H]2CO)[C@H](O)[C@@H](O)[C@@H]1O [CM4, 4-Cyclohexyl-1-butyl-β-D-maltoside] |  | less than 0.1 s
4 | CCCCCCCCCO[C@@H]1O[C@H](CO)[C@@H](O[C@H]2O[C@H](CO)[C@@H](O)[C@H](O)[C@H]2O)[C@H](O)[C@H]1O [NM, n-Nonyl-β-D-maltopyranoside] |  | less than 0.1 s
